PubChem BioAssay AID652259 – Drosophila RNAi Screening Center – 2013

- Purpose: 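Identify new Wingless signalling regulators in fly cells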 (primary screen)
- Cell system: Drosophila clone 8 imaginal disc epithelial cells
- Reagent: long dsRNA against Drosophila genes
- Challenge: pathway stimulated by co-transfected Wingless expression plasmid
- Measurement: 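Dual luciferase reads per well after Wingless plasmid stimulation: reporter firefly light and Renilla control light; activity is firefly divided by Renilla, a ratio not deposited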
- Direction: firefly reporter light: higher = more Wg reporter light, before normalisation; Renilla control light: higher = more transfected or surviving cells
- Hit rule: 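a knock-down is a candidate when at least two out of four statistical tests show it departing from its plate mean; one test alone signals a weak candidate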
- Meaning of the calls: active = candidate regulator (raises or lowers reporter); inactive = not a candidate
The deposit covers about 22,000 reagents; below is a random part of those that have a named target and a result. Of all reagents, 233 (1.1%) got an active call. 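Light values are raw, unnormalised plate reads; the ratio scores behind the reporter calls were not deposited.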 A number with no mark means an inactive call. A plus sign joins genes that one reagent is predicted to hit. Reagent sequences are not shown. Not stated in the record: the amount of reagent, the time to read-out, the dose of the treatment.

With knock-down of CG11164 [DRSC19392], the record shows firefly reporter light, replicate 1 = 25440; Renilla control light, replicate 1 = 14459.
Depletion of Hmbs [DRSC08632] came out at: firefly reporter light, replicate 1 = 15376; Renilla control light, replicate 1 = 3298.
For CG3014 [DRSC15458] the deposit lists firefly reporter light, replicate 1 = 9938; Renilla control light, replicate 1 = 2832.
After knock-down of Frmd5 [DRSC02802], the screen gave firefly reporter light, replicate 1 = 2113; firefly reporter light, replicate 2 = 6409; Renilla control light, replicate 1 = 790; Renilla control light, replicate 2 = 3472.
With knock-down of CARPB [DRSC18437], the screen gave firefly reporter light, replicate 1 = 4428; firefly reporter light, replicate 2 = 11633; Renilla control light, replicate 1 = 1465; Renilla control light, replicate 2 = 3035.
With knock-down of CARPB [DRSC18438], the record shows firefly reporter light, replicate 1 = 31360; Renilla control light, replicate 1 = 11331.
After knock-down of CG5262 [DRSC11773], the screen gave firefly reporter light, replicate 1 = 3904; Renilla control light, replicate 1 = 1584.
After knock-down of PpY-55A [DRSC07513] the results were firefly reporter light, replicate 1 = 3936; Renilla control light, replicate 1 = 1520.
Against CG5346 [DRSC15778], the values are firefly reporter light, replicate 1 = 47848; Renilla control light, replicate 1 = 9239.
With knock-down of CG9106 [DRSC20154], the record shows firefly reporter light, replicate 1 = 2939; firefly reporter light, replicate 2 = 9238; Renilla control light, replicate 1 = 1175; Renilla control light, replicate 2 = 2781.
For Ack-like [DRSC07500], the entry reads firefly reporter light, replicate 1 = 13430; Renilla control light, replicate 1 = 3028.
For Ack-like [DRSC21845], the entry reads firefly reporter light, replicate 1 = 5.54e5; firefly reporter light, replicate 2 = 5.51e5; Renilla control light, replicate 1 = 2.10e5; Renilla control light, replicate 2 = 2.67e5.
Against eIF3g1 [DRSC18427] the deposit lists firefly reporter light, replicate 1 = 4930; firefly reporter light, replicate 2 = 8621; Renilla control light, replicate 1 = 599; Renilla control light, replicate 2 = 1241.
After knock-down of cl [DRSC02118], the screen gave firefly reporter light, replicate 1 = 10832; Renilla control light, replicate 1 = 5336.
After knock-down of Mlf [DRSC07472] the results were firefly reporter light, replicate 1 = 2433; Renilla control light, replicate 1 = 1410.
After knock-down of snoRNA:Me28S-C3227a + snoRNA:Me18S-A1061 + snoRNA:Me28S-C3227b + 7 more [DRSC05497] the results were firefly reporter light, replicate 1 = 26019; Renilla control light, replicate 1 = 17461.
Silencing of CG9702 [DRSC16540] gave: firefly reporter light, replicate 1 = 9500; Renilla control light, replicate 1 = 3708.

Reprinted from above, 4 entries:
CARPB [DRSC18438]: firefly reporter light, replicate 1 = 31360; Renilla control light, replicate 1 = 11331
CG5262 [DRSC11773]: firefly reporter light, replicate 1 = 3904; Renilla control light, replicate 1 = 1584
PpY-55A [DRSC07513]: firefly reporter light, replicate 1 = 3936; Renilla control light, replicate 1 = 1520
CG5346 [DRSC15778]: firefly reporter light, replicate 1 = 47848; Renilla control light, replicate 1 = 9239

The listing continues.
For CG11841 [DRSC14399], the values are firefly reporter light, replicate 1 = 2227; firefly reporter light, replicate 2 = 2595; Renilla control light, replicate 1 = 1303; Renilla control light, replicate 2 = 560.
For CG5079 [DRSC15713] the deposit lists firefly reporter light, replicate 1 = 15963; Renilla control light, replicate 1 = 6648.
Silencing of Obp59a [DRSC04160] gave: firefly reporter light, replicate 1 = 3043; firefly reporter light, replicate 2 = 6832; Renilla control light, replicate 1 = 840; Renilla control light, replicate 2 = 2706.
With knock-down of CG4661 [DRSC19910], the screen gave firefly reporter light, replicate 1 = 14150; Renilla control light, replicate 1 = 7323.
CG7912 [DRSC16343] gave firefly reporter light, replicate 1 = 7200; Renilla control light, replicate 1 = 3190.
CG31777 [DRSC00201] scored firefly reporter light, replicate 1 = 15305; Renilla control light, replicate 1 = 8051.
Against ND-19 [DRSC04404] the deposit lists firefly reporter light, replicate 1 = 3515; firefly reporter light, replicate 2 = 9912; Renilla control light, replicate 1 = 1240; Renilla control light, replicate 2 = 2696.
Against Zasp52 [DRSC06269], the values are firefly reporter light, replicate 1 = 5268; Renilla control light, replicate 1 = 1691.
With knock-down of Zasp52 [DRSC07121] the results were firefly reporter light, replicate 1 = 5760; Renilla control light, replicate 1 = 2840.
ASPP [DRSC04305] gave firefly reporter light, replicate 1 = 2290; firefly reporter light, replicate 2 = 9794; Renilla control light, replicate 1 = 250; Renilla control light, replicate 2 = 1392.
With knock-down of DCTN1-p150 [DRSC11175], the record shows firefly reporter light, replicate 1 = 5428; Renilla control light, replicate 1 = 2269.
For Gclc [DRSC18666] the deposit lists firefly reporter light, replicate 1 = 17465; Renilla control light, replicate 1 = 9413.
Depletion of CG14223 [DRSC19580] resulted in: firefly reporter light, replicate 1 = 26213; Renilla control light, replicate 1 = 11004.
Silencing of CG43181 [DRSC17559] resulted in: firefly reporter light, replicate 1 = 2421; Renilla control light, replicate 1 = 812.
Depletion of CG14966 [DRSC08425] resulted in: firefly reporter light, replicate 1 = 7634; Renilla control light, replicate 1 = 3269.
